## Results of single-concentration screens

By UniProt entry, the sequences of proteins in these tests, tags left out. Residues count along the entry.
UniProt P9WFT3, whole entry: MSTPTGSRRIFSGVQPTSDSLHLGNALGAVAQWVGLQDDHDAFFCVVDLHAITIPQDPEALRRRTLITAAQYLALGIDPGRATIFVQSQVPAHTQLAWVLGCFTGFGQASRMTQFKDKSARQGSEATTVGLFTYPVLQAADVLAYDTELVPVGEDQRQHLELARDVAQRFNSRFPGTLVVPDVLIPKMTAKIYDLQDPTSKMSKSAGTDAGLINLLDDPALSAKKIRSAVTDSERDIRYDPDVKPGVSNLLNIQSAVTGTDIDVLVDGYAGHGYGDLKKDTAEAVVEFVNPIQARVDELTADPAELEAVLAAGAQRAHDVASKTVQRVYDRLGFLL
UniProt Q8IDJ8, 1-583: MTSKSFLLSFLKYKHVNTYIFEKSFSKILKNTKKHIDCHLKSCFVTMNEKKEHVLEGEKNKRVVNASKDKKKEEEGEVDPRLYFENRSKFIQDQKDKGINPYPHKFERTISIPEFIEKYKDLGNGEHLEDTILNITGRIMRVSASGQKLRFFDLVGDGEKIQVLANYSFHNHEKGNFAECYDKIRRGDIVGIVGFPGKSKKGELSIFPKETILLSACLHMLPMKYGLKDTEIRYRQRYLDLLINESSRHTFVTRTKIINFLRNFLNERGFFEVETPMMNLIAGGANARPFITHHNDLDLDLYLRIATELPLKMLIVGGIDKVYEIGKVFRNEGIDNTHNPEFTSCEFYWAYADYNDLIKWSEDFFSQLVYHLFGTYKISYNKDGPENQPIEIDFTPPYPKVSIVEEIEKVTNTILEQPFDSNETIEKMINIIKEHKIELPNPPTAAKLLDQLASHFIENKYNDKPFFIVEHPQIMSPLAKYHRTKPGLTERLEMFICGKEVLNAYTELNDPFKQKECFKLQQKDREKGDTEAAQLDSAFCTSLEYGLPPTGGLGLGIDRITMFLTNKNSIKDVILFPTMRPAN
UniProt P9WNZ1, whole entry: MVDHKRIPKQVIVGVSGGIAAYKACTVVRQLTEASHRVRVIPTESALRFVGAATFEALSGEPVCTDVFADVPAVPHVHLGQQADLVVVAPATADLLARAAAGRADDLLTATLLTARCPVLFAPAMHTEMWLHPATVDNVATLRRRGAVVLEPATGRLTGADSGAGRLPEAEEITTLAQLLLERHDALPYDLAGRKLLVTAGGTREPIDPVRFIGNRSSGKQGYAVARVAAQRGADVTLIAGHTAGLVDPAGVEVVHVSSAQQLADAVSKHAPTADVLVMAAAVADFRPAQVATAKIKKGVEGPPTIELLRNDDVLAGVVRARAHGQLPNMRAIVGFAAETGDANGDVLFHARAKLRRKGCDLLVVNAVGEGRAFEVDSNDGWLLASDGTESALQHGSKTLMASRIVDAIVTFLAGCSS
UniProt P9WPC5, whole entry: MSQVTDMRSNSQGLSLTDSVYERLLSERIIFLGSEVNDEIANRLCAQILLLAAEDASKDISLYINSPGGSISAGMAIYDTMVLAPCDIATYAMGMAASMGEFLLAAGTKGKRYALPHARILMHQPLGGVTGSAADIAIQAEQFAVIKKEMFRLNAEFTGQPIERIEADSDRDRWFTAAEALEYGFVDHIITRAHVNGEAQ
UniProt P9WPC3, whole entry partner: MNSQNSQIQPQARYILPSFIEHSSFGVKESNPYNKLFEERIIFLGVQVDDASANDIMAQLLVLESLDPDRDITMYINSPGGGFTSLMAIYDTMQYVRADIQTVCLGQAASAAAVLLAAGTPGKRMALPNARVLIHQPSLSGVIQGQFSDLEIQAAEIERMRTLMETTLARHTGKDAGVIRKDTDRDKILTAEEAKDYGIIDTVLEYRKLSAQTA
UniProt Q4DA54, 1-478: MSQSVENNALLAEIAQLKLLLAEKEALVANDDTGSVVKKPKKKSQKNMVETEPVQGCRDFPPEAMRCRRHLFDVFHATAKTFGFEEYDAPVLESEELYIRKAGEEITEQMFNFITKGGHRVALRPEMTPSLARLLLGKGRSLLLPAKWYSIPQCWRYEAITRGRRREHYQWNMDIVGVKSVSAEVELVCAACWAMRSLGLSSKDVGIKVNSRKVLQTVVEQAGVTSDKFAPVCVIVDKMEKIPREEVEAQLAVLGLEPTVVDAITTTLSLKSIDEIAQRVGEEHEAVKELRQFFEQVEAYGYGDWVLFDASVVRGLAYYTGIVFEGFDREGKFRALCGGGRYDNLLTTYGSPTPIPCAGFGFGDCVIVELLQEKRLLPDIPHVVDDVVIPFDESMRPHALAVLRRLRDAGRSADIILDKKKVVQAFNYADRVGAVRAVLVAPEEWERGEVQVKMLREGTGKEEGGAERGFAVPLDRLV

Data taken from ChEMBL document CHEMBL3988442, “University of Dundee, Small-Polar-MMV Screening Library” (2021).

MtTrpRS: 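Tryptophan-tRNA ligase, Mycobacterium tuberculosis (UniProt P9WFT3). Enzyme assay of tryptophanyl-tRNA synthetase; the read-out is not stated. Tested at 10 µM. Direction is not recorded; retested compounds ran higher, which suggests that high means inhibition. About 65,000 compounds were tested under these conditions; 0.098% (about 64) showed 50% or more at least once.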
PfKRS1: 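Enzyme assay of the cytosolic lysyl-tRNA synthetase in 384-well plates, read by luminescence. Target: Lysine-tRNA ligase, Plasmodium falciparum 3D7 (UniProt Q8IDJ8). Tested at 30 µM. Higher reads as stronger inhibition, judged from the few compounds that gave an IC50. Of about 69,000 compounds tested this way, about 49 (0.071%) reached 50% or more in at least one test.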
CoaBC: 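Coenzyme A biosynthesis protein CoaBC, Mycobacterium tuberculosis (UniProt P9WNZ1). Enzyme assay of CoaBC with a phosphate dye (Biomol Green) read at 650 nm. Compounds at 30 µM. Higher reads as stronger inhibition, judged from the few compounds that gave an IC50. Most strong results did not repeat in a second test. Of about 67,000 compounds tested this way, about 40 (0.06%) reached 50% or more in at least one test.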
ClpP1P2: 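ClpP1P2, Mycobacterium tuberculosis (UniProt P9WPC5 and UniProt P9WPC3). Protease assay of ClpP1P2, read by the AMC dye that it sets free. Tested at 50 µM. Direction is inferred from only a few compounds that gave an IC50; most scored high, so higher reads as stronger inhibition. Most other retested compounds had strongly negative values. Of about 69,000 compounds tested this way, about 10 (0.015%) reached 50% or more in at least one test.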
TcHisRS: 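Enzyme assay of histidyl-tRNA synthetase; the read-out is not stated. Target: Histidine-tRNA ligase, Trypanosoma cruzi CL Brener (UniProt Q4DA54). Concentration: 30 µM. Higher reads as stronger inhibition (inferred: compounds with an IC50 in retests scored well above the rest). About 69,000 compounds were tested under these conditions; 0.045% (about 31) showed 50% or more at least once.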

Values are the deposited “Percent Effect”, in %.
The controls that fix the scale are not given in the record; negative values are as filed.
Compounds were drawn at random from those tested, without regard to their results.
A dash means the value is not listed here; it may have been measured.

| structure | MtTrpRS | PfKRS1 | CoaBC | ClpP1P2 | TcHisRS |
|---|---|---|---|---|---|
| `CC(=O)c1ccc(N2CCCC(CO)(Cc3ccccc3C)C2)nc1` (stereo not given) | 2.101% | 2.954% | 3.981% | -16.43% | 0.5025% |
| `CNC(=O)[C@H]1C[C@@H]2CCN(Cc3ccc4c(c3)OCO4)C[C@@H]2O1` | 0.6975% | 4.606% | 6.303% | 2.751% | 2.479% |
| `CN1CCCCCC1C(=O)N1CCCN(c2ccccc2)CC1` (stereo not given) | -2.196% | 2.05% | -20.39% | -4.194% | -7.182% |
| `COC(=O)CN1CCC(C(=O)c2cc(F)ccc2F)CC1` | -1.712% | 0.8041% | 2.806% | -17.66% | 9.357% |
| `COc1cccc(NC(=O)NCC(Cc2cnn(C)c2)C(N)=O)c1` (stereo not given) | -3.431% | 3.161% | 0% | -2.616% | 3.333% |
| `CCC(=O)N1CCCC1c1n[nH]cc1-c1ccccc1F` (stereo not given) | -7.416% | 1.556% | 6.76% | -1.11% | 11.65% |
| `CCCc1ccc2oc(C(=O)N3CCC(O)CC3)c(C)c2c1` | 3.539% | -1.774% | -6.818% | -8.519% | 4.721% |
| `O=C(Nc1cnn(CC(=O)N2CCCO2)c1)c1ccccc1` | 3.604% | -1.309% | -3.204% | -12.68% | 0.5525% |
| `COCC(=O)NCc1ccc(-c2ncncc2C(=O)N(C)C)cc1` | -3.46% | 1.823% | 4.358% | 6.492% | 4.52% |
| `CC(C(=O)NCc1ccnc(N2CCCCCC2)c1)n1cccn1` (stereo not given) | 9.73% | -1.232% | 6.971% | -28.21% | 1.183% |
| `CCOCC(=O)N1Cc2nccn2CC(CN(C)C)C1` (stereo not given) | 1.119% | -20% | 3.393% | -9.407% | 7.035% |
| `Cc1ccc(-n2nnc(C(=O)NCC3CCCCC3)n2)cc1` | -2.508% | 16.56% | 5.708% | -3.927% | 1.031% |
| `Cn1cc(CN2CCOC3(CCCN(C(=O)c4ccco4)C3)C2)cn1` (stereo not given) | -2.568% | 2.123% | -0.4545% | -9.596% | 1.674% |
| `CN(CC(C)(C)C)S(=O)(=O)c1ccc(C(F)(F)F)nc1` | 0.8909% | -1.579% | 5.98% | -11.41% | 2.404% |
| `O=C(COCc1ccccc1Cl)Nc1ccnn1CC1CCOC1` (stereo not given) | 2.079% | 1.1% | 0.3817% | -15.85% | -0.4808% |
| `O=C1CC(C(=O)N2CCc3sccc3C2)CN1Cc1cccnc1` (stereo not given) | 3.997% | 3.912% | -1.489% | -4.754% | 5.202% |
| `CCC(c1nc(C(C)C)nn1-c1ccncc1C)n1cccn1` (stereo not given) | -4.545% | 5.18% | 3.623% | 3.501% | 5.806% |
| `Cc1n[nH]c(C2CN(C(=O)CCOCC(F)(F)F)CCO2)n1` (stereo not given) | 3.11% | 5.033% | -0.6053% | 9.847% | 1.98% |
| `CCCNC(=O)CNc1cc(C(=O)NCC(F)(F)F)cc(F)c1C` | 0.7498% | 1.75% | 3.688% | -23.17% | 2.128% |
| `Cc1cc(-c2nccn2CCN2CCCCC2CO)oc1C` (stereo not given) | 5.811% | 0.4644% | 1.518% | -5.675% | 5.319% |
| `Cc1ccc(-c2cnn(CC(=O)NC(C)C)c2)cc1` | 0.8045% | -0.5648% | 6.335% | 13.42% | 4.871% |
| `CCc1nc(C(=O)N2CC(C(C)C)Nc3ccccc32)c[nH]1` (stereo not given) | 3.405% | 7.342% | 1.648% | -0.1609% | 7.328% |
| `CCOC(=O)N1CCN(C(=O)C(CC)n2cccn2)CC1` (stereo not given) | -2.853% | 2.444% | -0.8631% | -11.93% | -4.386% |
| `Cn1cc(CC2CCN(C(=O)NCc3cccc(C#N)c3)C2)cn1` (stereo not given) | 1.352% | -0.2001% | -0.5115% | -25.81% | 2.353% |
| `Cn1ccc(C(=O)NCc2ccc(N3CCCCCC3)nc2)cc1=O` | -5.423% | 0.6372% | 3.916% | -33.66% | 10.17% |
| `O=C(Cc1ccc(F)cc1)NCCNCc1cccc(O)c1` | 5.161% | 0.3301% | 5.032% | -10.6% | 6.322% |
| `O=C(CN1CCS(=O)(=O)CC1)NCc1ccccc1F` | -2.414% | 1.598% | 8.73% | -9.56% | 13.79% |
| `c1cnc(N2CC[C@@H]3O[C@@H](COCc4cccnc4)CC[C@@H]32)nc1` | 1.443% | 1.118% | -3.055% | -0.3567% | 9.195% |
| `CNC(=O)CCc1cc(C2CCN(c3cnccn3)CC2)nc(C)n1` | -2.604% | 0.1851% | 2.871% | -19.76% | 5.747% |
| `Cc1nc(N2CCN(C)CC2)ncc1C(=O)N1CCCCC1` | 0.8482% | 0.6654% | -0.6588% | -5.915% | 0% |
| `c1ccc(-n2cnnc2CCCN2CCOCC2)cc1` | -4.941% | 7.712% | 2.335% | 4.13% | 7.2% |
| `Cc1ncccc1C(=O)NC1CC(=O)N(CC(F)(F)F)C1` (stereo not given) | -7.864% | 0.139% | 2.233% | 5.6% | 2.941% |
| `CC1CCN(C(=O)C2CCCN(C(=O)Nc3ccccn3)C2)CC1` (stereo not given) | -9.574% | 0.9163% | -7.025% | 3.023% | 7.065% |
| `O=C(Cc1nc(-c2ccncc2)n[nH]1)NCCCN1CCOCC1` | -3.52% | -0.1442% | -0.3764% | -5.82% | 2.488% |
| `CN1CCN(c2nc(O)cc(Cc3ccccc3F)n2)CC1` | -4.762% | 2.334% | 8.858% | -26.04% | 12.41% |
| `O=C1NCCN1C1CCCN(Cc2coc(-c3cccs3)n2)C1` (stereo not given) | -0.5136% | -1.06% | 6.513% | -20.05% | 5.78% |
| `OCC(CO)Nc1nc(C(F)F)nc2ccccc12` | -2.994% | 0.8575% | -12.5% | -2.109% | 5.699% |
| `COC[C@@]12CCO[C@@H]1CCN(C(=O)Cc1ccc(C)cc1)C2` | -4.054% | -2.042% | -2.836% | -0.9345% | 2.632% |
| `CN(CCO)c1ncc(-c2ccc(NC(=O)[C@@H]3CCCCN3)cc2)cn1` | - | 4.253% | 2.048% | -1.084% | 6.78% |
| `COCCNCc1cc2c(C)cc(C)cc2n2c(=O)n(C)nc12` | - | 2.791% | -0.4843% | -73.03% | 8.889% |
| `C[C@@H]1C[C@H]2CN(C(=O)C3=CCCC3)C[C@H]2O1` | 2.344% | 2.868% | 3.817% | -1.065% | 1.942% |
| `COCc1cc(N2CCc3onc(-c4cccc(OC)c4)c3C2)ncn1` | -6.133% | 3.353% | 2.823% | 1.094% | 13.97% |
| `Cc1ccc(CNC(=O)c2ccc(F)cc2)o1` | 2.365% | 2.721% | 2.908% | 3.745% | 8.247% |
| `CNS(=O)(=O)c1ccc(CN2CCCN(Cc3ccncc3)CC2)cc1` | 16.91% | 3.484% | -15.81% | 4.92% | -0.4926% |
| `CN(C)C(=O)COc1ccccc1CN1CCCC2(C1)CN(C)C(=O)O2` (stereo not given) | 0.722% | 1.825% | 13.32% | -8.614% | 1.064% |
| `CCn1cc(S(=O)(=O)NCC(OC)c2ccccc2)cn1` (stereo not given) | -1.544% | 2.863% | 0.8403% | 3.889% | 7.778% |
| `Cc1ncncc1-c1ccnc(N(C)C)n1` | - | 4.237% | 3.494% | -5.592% | 5.65% |
| `CC(C)NC(=O)N1CCC2(CC1)NC(=O)CC2c1ccncc1` (stereo not given) | -1.762% | -0.9813% | 2.326% | -2.339% | 6.452% |
| `Cc1cc(-c2cnc(C3CC3)nc2CN(C)C(=O)c2ccccn2)on1` | -5.49% | 1.55% | 2.843% | -11.13% | 9.125% |
| `COC(=O)[C@@H]1C[C@@H](NC(=O)CN2C(=O)N(C)Cc3ccccc32)CN1C` | -3.096% | 3.106% | - | -6.148% | 1.316% |
| `O=C(NCCn1ccnc1)c1csc2c1CCCC2` | -4.941% | 6.685% | 3.099% | 11.54% | 6.349% |
| `COCCn1cnnc1CCn1ccnc1-c1ccccc1Cl` | -0.7098% | 6.96% | -2.635% | -15.26% | 5.366% |
| `N#Cc1cccc(N2CCC3(CCC(=O)N(CCCO)C3)CC2)n1` | 3.307% | 7.797% | -3.069% | -26.35% | -14.14% |
| `O=C(c1ccncc1)N1C[C@@H]2OCCN(CCN3CCCC3)[C@@H]2C1` | -2.033% | -0.515% | 5.25% | -8.83% | 5.882% |
| `O=C(NC[C@]12COC[C@H]1CN(Cc1cccc(F)c1)C2)c1ccco1` | -5.534% | -2.424% | 3.09% | -5.588% | 10.2% |
| `CN1CCC(Cc2cncc(-c3ccccc3C(=O)O)n2)C1` (stereo not given) | - | 3.266% | 3.148% | 8.882% | 11.11% |
| `CCC(CC)C(=O)NS(=O)(=O)c1ccc(C#N)cc1C(F)(F)F` | -3.352% | 3.48% | 3.509% | -2.263% | 5.233% |
| `CC(C)CCCNC(=O)Nc1ccc(F)c(C(N)=O)c1` | -4.182% | 0.01261% | 3.689% | 5.161% | 1.901% |
| `COc1ccc(C(=O)O)cc1-c1cccc(C(C)N(C)C)c1` (stereo not given) | 0.6552% | -1.997% | 6.407% | 12.63% | -2.762% |
| `CCCn1ccnc1-c1nccn1CCC(N)=O` | 0.1505% | 3.257% | -1.22% | -19.18% | 0% |
| `Cc1n[nH]c2ncc(CNC3CCCN(c4ncccn4)C3)cc12` (stereo not given) | -2.687% | 3.55% | 5.4% | -4.1% | 6.122% |
| `CCn1c(CN(C)C)nnc1C1CCN(Cc2ccccn2)CC1` | 2.681% | -4.327% | -0.3619% | 4.52% | -0.5025% |

The first 4 entries again:

Result for CC(=O)c1ccc(N2CCCC(CO)(Cc3ccccc3C)C2)nc1 (stereo not given) was MtTrpRS: 2.101%; PfKRS1: 2.954%; CoaBC: 3.981%; ClpP1P2: -16.43%; TcHisRS: 0.5025%.
Result for CNC(=O)[C@H]1C[C@@H]2CCN(Cc3ccc4c(c3)OCO4)C[C@@H]2O1 was MtTrpRS: 0.6975%; PfKRS1: 4.606%; CoaBC: 6.303%; ClpP1P2: 2.751%; TcHisRS: 2.479%.
Result for CN1CCCCCC1C(=O)N1CCCN(c2ccccc2)CC1 (stereo not given) was MtTrpRS: -2.196%; PfKRS1: 2.05%; CoaBC: -20.39%; ClpP1P2: -4.194%; TcHisRS: -7.182%.
Result for COC(=O)CN1CCC(C(=O)c2cc(F)ccc2F)CC1 was MtTrpRS: -1.712%; PfKRS1: 0.8041%; CoaBC: 2.806%; ClpP1P2: -17.66%; TcHisRS: 9.357%.